US20020111289
Construct, isoform or probe ends are uncertain for at least one entry. For part of these data: A negative result means that nothing was seen under these conditions.

Chains of the proteins cited; added tags and fusions are not shown. Residues count along the entry.
UniProt P61244, 2-160: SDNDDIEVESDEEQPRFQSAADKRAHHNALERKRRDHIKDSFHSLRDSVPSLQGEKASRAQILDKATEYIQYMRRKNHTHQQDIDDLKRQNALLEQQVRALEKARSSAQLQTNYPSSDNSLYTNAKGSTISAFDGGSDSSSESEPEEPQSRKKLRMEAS

Experiments:
MAX = MAX (UniProt P61244); test: EMSA; details: putative MAX complex bound to DNA supershifted by anti-HA; protein translated in vitro; protein details: C-terminal HA, TNT T7 Quick (Promega); label: 32P end-label
[1] = test system: c-MYC (ct-Myc, truncated)/MAX heterodimer; test: EMSA; details: protein translated in vitro, label: 32P end-label
[2] = test system: c-Myc HLH deletion mutant deletion of amino acids 371-412; test: activity in cells; details: no transactivation in NIH3T3; protein in cells; protein details: MLV-LTR expression plasmid
c-Myc wild type = test: activity in cells; details: protein in cells, protein details: MLV-LTR expression plasmid

## CCGGTACCGGGTTGTGGCAGCCAGTCACGTGCCCGCCGCGTAGCCACACCTCTGCTCCTCAGAGCAATGTCAAGCGGTCACGTGTGATAGCAACAGATCACGTGGCTGCCATCGCCCCTC / ATGAATTCCGGACGTTCTGGGCACGTGACCGCCACCCATGCGCTGAGGGGCGGACAGGAGGTGCTTCGACTGGGAGGAGGGCGAAGAGTGTAAGGGGGCGGAGGGGCGATGGCAGCC [CDK4 promoter fragment wt MBS1-4]
MAX
  binding result: binds
[1]; 25 mM Tris pH 7.5, 80 mM NaCl, 35 mM KCl, 5 mM MgCl2, poly(dIdC), room temperature, competed by 40x unlabeled wt but not mutant, HA supershift
  binding result: binds
[2]
  activity on this sequence: not active
c-Myc wild type; luciferase transactivation in NIH3T3
  activity on this sequence: active

## CCGGTACCGGGTTGTGGCAGCCAGTCACCTGCCCGCCGCGTAGCCACACCTCTGCTCCTCAGAGCAATGTCAAGCGGTCACCTGTGATAGCAACAGATCACCTGGCTGCCATCGCCCCTC / ATGAATTCCGGACGTTCTGGGCAGGTGACCGCCACCCATGCGCTGAGGGGCGGACAGGAGGTGCTTCGACTGGGAGGAGGGCGAAGAGTGTAAGGGGGCGGAGGGGCGATGGCAGCCAGG [CDK4 promoter fragment mutant MBS1-4]
[1]; variant of CDK4 promoter fragment wt MBS1-4
  binding result: no binding
c-Myc wild type; luciferase in NIH3T3 with cotransfected c-Myc, mutMBS1-4, variant of CDK4 promoter fragment wt MBS1-4, counted as no effect
  activity on this sequence (fold less active than wild-type promoter): 100
